PubChem BioAssay AID652248 | Drosophila RNAi Screening Center – 2013
The deposit covers 863 reagents; below is an unselected part. 32 of all reagents (3.7%) count as active. 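Calls also used reproducibility and a similarity ranking whose scores are not deposited; many active genes show only modest elongated scores.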 A plus sign joins genes that one reagent is predicted to hit. Further read-outs or replicates are left out here. Not given: the amount of reagent, the time to read-out.

- Screen: 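Kinases and phosphatases whose loss pushes fly blood cells toward elongated shapes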 (primary screen)
- System: cultured Drosophila hemocytes
- Knock-down reagent: long dsRNA against Drosophila genes
- Detection: 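Automated microscopy of stained actin, tubulin and nuclei; single-cell shape measures assigned to five reference shape types, giving a score per dsRNA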
- Scale: elongated score: higher = more elongated bipolar cells; normal round score: higher = more normal rounded cells
- Hit rule: 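Hits show a significant increase of elongated cells; higher rank given where elongated cells rose as other shape types fell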

CG4839 [DRSC02783] gave elongated score, rep 1 = -0.34; normal round score, rep 1 = 0.16; inactive. CG4839 [DRSC02784] gave elongated score, rep 1 = -0.39; normal round score, rep 1 = -1.11; inactive. S6kII [DRSC20645] gave elongated score, rep 1 = -0.16; normal round score, rep 1 = -0.89; inactive. After knock-down of KP78a + KP78b [DRSC16721] the results were elongated score, rep 1 = 0.38; normal round score, rep 1 = 0.25; inactive. Against KP78a + KP78b [DRSC16722], the values are elongated score, rep 1 = -0.53; normal round score, rep 1 = 0.74; inactive. KP78a + KP78b [DRSC23338] gave elongated score, rep 1 = -0.53; normal round score, rep 1 = -2.46; inactive.

KP78a + KP78b [DRSC23341] showed elongated score, rep 1 = 0.31; normal round score, rep 1 = -0.09; inactive. Against KP78a + KP78b [DRSC29265] the deposit lists elongated score, rep 1 = 2.8; normal round score, rep 1 = -1.28; inactive. Depletion of lok [DRSC03567] gave: elongated score, rep 1 = -0.53; normal round score, rep 1 = -0.18; inactive. lok [DRSC25866] scored elongated score, rep 1 = -0.53; normal round score, rep 1 = -1.51; inactive. Cks30A [DRSC03292] scored elongated score, rep 1 = 1.78; normal round score, rep 1 = -0.89; inactive. Knock-down of bt [DRSC17129] came out at: elongated score, rep 1 = -0.1; elongated score, rep 2 = -0.35; normal round score, rep 1 = 0.19; inactive.

With knock-down of bt [DRSC17171] the results were elongated score, rep 1 = -0.27; elongated score, rep 2 = -0.53; normal round score, rep 1 = -1.08; inactive. For Takl1 [DRSC13443], the entry reads elongated score, rep 1 = -0.02; normal round score, rep 1 = -0.65; inactive. Silencing of Takl1 [DRSC28251] came out at: elongated score, rep 1 = -0.07; normal round score, rep 1 = 0.07; inactive. Against S6k [DRSC11276], the values are elongated score, rep 1 = 0.53; normal round score, rep 1 = -0.58; inactive. After knock-down of CG12069 [DRSC14470], the record shows elongated score, rep 1 = 1.42; normal round score, rep 1 = -0.18; inactive. After knock-down of CG12069 [DRSC26204] the results were elongated score, rep 1 = 2.79; normal round score, rep 1 = -1.78; inactive.

Silencing of LIMK1 [DRSC19811] came out at: elongated score, rep 1 = 0.3; normal round score, rep 1 = -1.03; inactive. Pdxk [DRSC10419] showed elongated score, rep 1 = -0.05; normal round score, rep 1 = -0.89; inactive. Knock-down of bsd [DRSC05953] gave: elongated score, rep 1 = -0.53; normal round score, rep 1 = 0.14; inactive. With knock-down of vari [DRSC03202] the results were elongated score, rep 1 = 2.28; normal round score, rep 1 = -1.52; inactive. Against Acph-1 [DRSC14103] the deposit lists elongated score, rep 1 = -0.27; normal round score, rep 1 = -0.83; inactive. After knock-down of Pkg21D [DRSC00772], the record shows elongated score, rep 1 = 0.55; normal round score, rep 1 = -1.04; inactive.

Pkg21D [DRSC29092] gave elongated score, rep 1 = 1.72; normal round score, rep 1 = -2.47; inactive.

Just “normal round score, rep 1”, for 3 of the entries above:
KP78a + KP78b [DRSC23341]: -0.09
KP78a + KP78b [DRSC29265]: -1.28
lok [DRSC03567]: -0.18
